Experimental data: paper PMC13039736
These are yes or no findings as the source states them, for the method shown. Binding seen in cells or lysates may run through a third protein. For part of these data: A result given as binding can be weak or reduced; the word gives no strength. For part of these data: Tags and fused reporters may be left off the sequences shown.

How the values were obtained:
[1] = molecular target: HA-DUSP12 phosphatase domain + C-terminus truncation; test: co-IP; in vitro binding assay: HA-tagged DUSP12 forms and FLAG-ZNF622 expressed by coupled in vitro transcription/translation, incubated together with anti-HA magnetic beads 1.5 h at 4 C, washed with LAP200 buffer (200 mM KCl, 0.05% NP-40, 0.5 mM DTT); immunoblot
[2] = molecular target: HA-DUSP12 N-terminus truncation; test: as above
[3] = molecular target: HA-DUSP12 phosphatase domain truncation; test: as above
[4] = molecular target: LAP-DUSP12 N-terminus truncation; test: co-IP; LAP-tagged induced HeLa stable cell lines (asynchronous or Taxol-arrested) lysed, incubated with S-protein Agarose 2 h at 4 C, washed with LAP100 buffer (100 mM KCl, 0.05% NP-40, 0.5 mM DTT); immunoblot for ZNF622
[5] = molecular target: LAP-DUSP12 phosphatase domain truncation; test: as above
[6] = molecular target: LAP-DUSP12 phosphatase domain + C-terminus truncation; test: as above

| Binder | binding [1] | binding [2] | binding [3] | binding [4] | binding [5] | binding [6] |
| --- | --- | --- | --- | --- | --- | --- |
| FLAG-ZNF622 (protein, UniProt Q969S3 1-477) MATYTCITCRVAFRDADMQRAHYKTDWHRYNLRRKVASMAPVTAEGFQERVRAQRAVAEEESKGSATYCTVCSKKFASFNAYENHLKSRRHVELEKKAVQAVNRKVEMMNEKNLEKGLGVDSVDKDAMNAAIQQAIKAQPSMSPKKAPPAPAKEARNVVAVGTGGRGTHDRDPSEKPPRLQWFEQQAKKLAKQQEEDSEEEEEDLDGDDWEDIDSDEELECEDTEAMDDVVEQDAEEEEAEEGPPLGAIPITDCLFCSHHSSSLMKNVAHMTKDHSFFIPDIEYLSDIKGLIKYLGEKVGVGKICLWCNEKGKSFYSTEAVQAHMNDKSHCKLFTDGDAALEFADFYDFRSSYPDHKEGEDPNKAEELPSEKNLEYDDETMELILPSGARVGHRSLMRYYKQRFGLSRAVAVAKNRKAVGRVLQQYRALGWTGSTGAALMRERDMQYVQRMKSKWMLKTGMKNNATKQMHFRVQVRF | binds | no binding | no binding | – | – | – |
| zinc finger protein 622 (ZNF622), endogenous (protein, UniProt Q969S3 1-477) MATYTCITCRVAFRDADMQRAHYKTDWHRYNLRRKVASMAPVTAEGFQERVRAQRAVAEEESKGSATYCTVCSKKFASFNAYENHLKSRRHVELEKKAVQAVNRKVEMMNEKNLEKGLGVDSVDKDAMNAAIQQAIKAQPSMSPKKAPPAPAKEARNVVAVGTGGRGTHDRDPSEKPPRLQWFEQQAKKLAKQQEEDSEEEEEDLDGDDWEDIDSDEELECEDTEAMDDVVEQDAEEEEAEEGPPLGAIPITDCLFCSHHSSSLMKNVAHMTKDHSFFIPDIEYLSDIKGLIKYLGEKVGVGKICLWCNEKGKSFYSTEAVQAHMNDKSHCKLFTDGDAALEFADFYDFRSSYPDHKEGEDPNKAEELPSEKNLEYDDETMELILPSGARVGHRSLMRYYKQRFGLSRAVAVAKNRKAVGRVLQQYRALGWTGSTGAALMRERDMQYVQRMKSKWMLKTGMKNNATKQMHFRVQVRF | – | – | – | no binding | no binding | binds |
